Each structure is given as a SMILES string. The list does not hold the whole screen: its compounds were picked by chemical class. Other doses and runs of a compound may be missing. T/C: endpoint of the treated group in % of that of the vehicle group. Some doses have a count of surviving animals in place of a T/C: the source holds a T/C of zero for them, seemingly a mark for toxic or unscored doses. Some doses without a T/C left all or most animals alive at the check, yet need not have been tolerated: the source hardly ever lists a survival T/C far under the control, and the zero likely stands for such cases as well. Counts of survivors are from the toxicity check (mostly the fifth day) where no day follows; animals may have died later. Schedules are NCI's codes, read here as Q, the interval in days (D) or hours (H), X, the number of doses. Where survival is the endpoint, the PubChem record calls one and a half times the control and up active, and a quarter to a half above the control has no call in these data; cut-offs in other NCI protocols can differ.

The assay concerns DBA/2 mice, P1534 leukemia ip, survival T/C. Kind of assay: NCI In Vivo Anticancer Drug Screen. Data for tumor model P1534 Leukemia (intraperitoneal) in DBA/2 mice. As to conditions: T/C endpoint: mean survival time, schedule: Q01DX010 (ip), vehicle: saline, higher T/C = longer survival. The procedure: The antitumor activity of compounds was measured in mice bearing transplantable tumors. Survival or tumor size were measured and the results are expressed as the measurement made in the treated group (T) divided by the measurement made in the vehicle treated control group (C). The tumor model used in this assay is P1534 Leukemia (intraperitoneal) in DBA/2 mice

For `Cc1[nH]c(=O)[nH]c(=O)c1N(CCCl)CCCl`, the T/C (dose: 0.5 mg/kg/injection) was 108 % of control, the T/C (dose: 1.0 mg/kg/injection) is 100 % of control and the T/C (dose: 2.0 mg/kg/injection) is 108 % of control. Besides, the survivor count (dose: 4.0 mg/kg/injection) is given as 5 of 6.
